Source: PubChem BioAssay AID1259405 (NCATS, 2018)
Screen: 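Knock-downs that lift recombinant protein yield in hamster ovary cells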 (primary screen). Cells: Chinese hamster CHO-K1 ovary cells with stable secreted eGFP expression. Knock-down reagent: single siRNA against mouse genes, 0.8 pmol siRNA per well (2 µl of 400 nM stock). Time to read-out: 3 days. Measured: 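Per-well intracellular GFP measured by laser scanning cytometry, plus viability from ATP luminescence, each relative to plate median of non-targeting control wells, in %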. Direction: GFP, % of control: higher = more GFP per well, higher productivity; viability (ATP), % of control: higher = more viable cells (more ATP). Active means: 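a knock-down is called active if GFP reaches 120% or more of non-targeting control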.
The whole screen tested about 50,000 reagents; this is a random part of them. About 4,000 of all reagents (8%) were called active. 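Mouse siRNA library applied to hamster cells; one well for each siRNA.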 Entries without a mark were called inactive. The numbers tell different reagents against one gene apart. No sequences are given here.

Gene	siRNA no.	GFP, % of control	viability (ATP), % of control
Tmem270	1	103	86.6
Tmem270	2	87.9	52.2
Tmem270	3	63.1	55.6
Cdk12	1	93.2	73.1
Hcls1	1	73.4	77.3
Hcls1	2	61.2	73.8
Dtx4	1	115	63.6
Dtx4	2	35.8	54.1
Dtx4	3	79.2	102
Col8a1	1	112	69
Col8a1	2	91.3	83
Mkks	1	65.1	50.5
Mkks	2	110	78.9
Mkks	3	137 (active)	119
Map3k8	1	66.8	74.4
Rbl2	1	61.5	75.9
Rbl2	2	72.7	51.7
Rbl2	3	93.7	96.9
Pramel13	1	228 (active)	76.8
Pramel13	2	20.4	33.9
Pramel13	3	49.5	68.9
Ammecr1l	1	92.1	104
Ammecr1l	2	91.6	89
Ammecr1l	3	102	71.4
Elfn1	1	28.9	25.6
Elfn1	2	128 (active)	99.1
Elfn1	3	82.7	59.1
Ppp2r3c	1	112	97
Ppp2r3c	2	65.1	62.8
Ppp2r3c	3	82	125
Zbtb17	1	79.6	100
Zbtb17	2	56.5	83.2
Zbtb17	3	54.1	68.7
Nfasc	1	95.8	80.2
Nfasc	2	67.4	67.5
